Test results as given in paper PMC4393133.
Results are given in words; binding and its absence hold for the method and conditions named. For part of these data: In cells and extracts the contact can be indirect. Some results given as binding are weak or reduced against the parent protein; the word gives no strength. For part of these data: Where a sequence is shown, tags or fusion partners need not be part of it.

By UniProt entry, the sequences of proteins in these tests, tags left out. Where a name states a change or a piece, a line headed by the entry shows the natural chain unless it says otherwise.
UniProt P21333: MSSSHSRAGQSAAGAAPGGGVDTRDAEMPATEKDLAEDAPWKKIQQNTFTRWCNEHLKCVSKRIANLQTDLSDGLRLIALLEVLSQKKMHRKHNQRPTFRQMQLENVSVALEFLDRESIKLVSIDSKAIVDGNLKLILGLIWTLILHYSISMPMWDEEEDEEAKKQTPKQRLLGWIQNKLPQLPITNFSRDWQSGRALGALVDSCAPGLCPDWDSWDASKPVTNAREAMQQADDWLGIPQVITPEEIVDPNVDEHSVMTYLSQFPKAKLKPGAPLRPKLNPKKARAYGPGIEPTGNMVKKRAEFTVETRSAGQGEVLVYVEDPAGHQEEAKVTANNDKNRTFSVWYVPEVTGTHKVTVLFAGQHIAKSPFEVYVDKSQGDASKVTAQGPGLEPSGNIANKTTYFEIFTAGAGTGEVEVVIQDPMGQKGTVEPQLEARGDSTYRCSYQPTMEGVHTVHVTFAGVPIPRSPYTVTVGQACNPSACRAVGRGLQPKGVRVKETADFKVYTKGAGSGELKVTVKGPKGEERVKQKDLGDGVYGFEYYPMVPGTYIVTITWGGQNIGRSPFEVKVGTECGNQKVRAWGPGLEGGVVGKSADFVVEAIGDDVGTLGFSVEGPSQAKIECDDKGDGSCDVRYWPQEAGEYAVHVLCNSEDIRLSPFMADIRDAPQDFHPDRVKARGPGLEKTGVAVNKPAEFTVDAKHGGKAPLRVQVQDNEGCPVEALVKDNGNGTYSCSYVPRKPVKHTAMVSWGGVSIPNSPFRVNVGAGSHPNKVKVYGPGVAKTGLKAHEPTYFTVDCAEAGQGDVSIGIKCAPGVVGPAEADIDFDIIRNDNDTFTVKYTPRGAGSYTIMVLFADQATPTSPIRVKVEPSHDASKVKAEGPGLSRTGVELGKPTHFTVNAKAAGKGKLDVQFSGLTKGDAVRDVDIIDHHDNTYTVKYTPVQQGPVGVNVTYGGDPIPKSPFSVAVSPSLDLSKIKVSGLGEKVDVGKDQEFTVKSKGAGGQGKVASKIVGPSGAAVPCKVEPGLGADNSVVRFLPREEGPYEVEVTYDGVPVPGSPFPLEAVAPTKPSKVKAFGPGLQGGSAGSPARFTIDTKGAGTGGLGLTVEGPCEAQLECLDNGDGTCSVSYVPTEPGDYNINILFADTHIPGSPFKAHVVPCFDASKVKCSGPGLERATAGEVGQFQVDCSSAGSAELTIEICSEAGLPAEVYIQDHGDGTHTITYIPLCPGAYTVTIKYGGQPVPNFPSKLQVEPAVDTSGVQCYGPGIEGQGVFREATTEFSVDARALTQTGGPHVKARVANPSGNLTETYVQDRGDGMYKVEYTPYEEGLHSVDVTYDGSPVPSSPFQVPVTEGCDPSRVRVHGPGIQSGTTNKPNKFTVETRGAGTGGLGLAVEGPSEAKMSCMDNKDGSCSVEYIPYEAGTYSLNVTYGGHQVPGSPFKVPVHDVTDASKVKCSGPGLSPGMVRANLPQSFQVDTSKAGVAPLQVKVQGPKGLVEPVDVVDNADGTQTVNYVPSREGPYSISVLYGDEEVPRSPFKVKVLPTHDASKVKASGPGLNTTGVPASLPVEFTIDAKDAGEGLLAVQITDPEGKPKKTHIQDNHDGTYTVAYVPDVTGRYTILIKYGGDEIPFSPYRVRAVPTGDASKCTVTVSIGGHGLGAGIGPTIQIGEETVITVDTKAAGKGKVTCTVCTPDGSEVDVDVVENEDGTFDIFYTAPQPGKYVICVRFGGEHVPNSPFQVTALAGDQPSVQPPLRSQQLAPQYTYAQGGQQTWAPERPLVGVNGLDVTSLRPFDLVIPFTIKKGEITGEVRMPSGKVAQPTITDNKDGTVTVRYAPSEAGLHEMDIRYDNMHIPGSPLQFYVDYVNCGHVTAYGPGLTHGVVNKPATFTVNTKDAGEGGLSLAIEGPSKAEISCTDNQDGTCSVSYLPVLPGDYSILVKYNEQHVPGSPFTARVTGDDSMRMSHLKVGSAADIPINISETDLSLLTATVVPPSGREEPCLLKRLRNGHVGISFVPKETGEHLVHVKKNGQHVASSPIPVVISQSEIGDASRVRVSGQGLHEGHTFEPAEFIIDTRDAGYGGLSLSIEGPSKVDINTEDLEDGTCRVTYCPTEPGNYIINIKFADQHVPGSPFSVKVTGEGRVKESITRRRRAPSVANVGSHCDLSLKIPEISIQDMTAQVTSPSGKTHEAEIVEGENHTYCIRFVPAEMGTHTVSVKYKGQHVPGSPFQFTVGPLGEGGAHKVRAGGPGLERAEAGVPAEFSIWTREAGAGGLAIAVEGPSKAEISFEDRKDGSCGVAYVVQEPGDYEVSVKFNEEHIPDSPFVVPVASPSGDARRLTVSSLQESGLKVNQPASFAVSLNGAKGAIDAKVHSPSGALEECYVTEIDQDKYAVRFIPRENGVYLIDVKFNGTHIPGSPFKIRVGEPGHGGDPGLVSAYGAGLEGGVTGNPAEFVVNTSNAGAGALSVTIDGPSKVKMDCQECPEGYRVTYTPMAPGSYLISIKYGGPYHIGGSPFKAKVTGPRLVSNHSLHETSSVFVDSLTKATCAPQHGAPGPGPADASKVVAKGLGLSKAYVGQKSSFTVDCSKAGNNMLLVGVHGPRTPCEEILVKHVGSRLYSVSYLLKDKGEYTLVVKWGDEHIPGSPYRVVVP
UniProt Q8BTM8: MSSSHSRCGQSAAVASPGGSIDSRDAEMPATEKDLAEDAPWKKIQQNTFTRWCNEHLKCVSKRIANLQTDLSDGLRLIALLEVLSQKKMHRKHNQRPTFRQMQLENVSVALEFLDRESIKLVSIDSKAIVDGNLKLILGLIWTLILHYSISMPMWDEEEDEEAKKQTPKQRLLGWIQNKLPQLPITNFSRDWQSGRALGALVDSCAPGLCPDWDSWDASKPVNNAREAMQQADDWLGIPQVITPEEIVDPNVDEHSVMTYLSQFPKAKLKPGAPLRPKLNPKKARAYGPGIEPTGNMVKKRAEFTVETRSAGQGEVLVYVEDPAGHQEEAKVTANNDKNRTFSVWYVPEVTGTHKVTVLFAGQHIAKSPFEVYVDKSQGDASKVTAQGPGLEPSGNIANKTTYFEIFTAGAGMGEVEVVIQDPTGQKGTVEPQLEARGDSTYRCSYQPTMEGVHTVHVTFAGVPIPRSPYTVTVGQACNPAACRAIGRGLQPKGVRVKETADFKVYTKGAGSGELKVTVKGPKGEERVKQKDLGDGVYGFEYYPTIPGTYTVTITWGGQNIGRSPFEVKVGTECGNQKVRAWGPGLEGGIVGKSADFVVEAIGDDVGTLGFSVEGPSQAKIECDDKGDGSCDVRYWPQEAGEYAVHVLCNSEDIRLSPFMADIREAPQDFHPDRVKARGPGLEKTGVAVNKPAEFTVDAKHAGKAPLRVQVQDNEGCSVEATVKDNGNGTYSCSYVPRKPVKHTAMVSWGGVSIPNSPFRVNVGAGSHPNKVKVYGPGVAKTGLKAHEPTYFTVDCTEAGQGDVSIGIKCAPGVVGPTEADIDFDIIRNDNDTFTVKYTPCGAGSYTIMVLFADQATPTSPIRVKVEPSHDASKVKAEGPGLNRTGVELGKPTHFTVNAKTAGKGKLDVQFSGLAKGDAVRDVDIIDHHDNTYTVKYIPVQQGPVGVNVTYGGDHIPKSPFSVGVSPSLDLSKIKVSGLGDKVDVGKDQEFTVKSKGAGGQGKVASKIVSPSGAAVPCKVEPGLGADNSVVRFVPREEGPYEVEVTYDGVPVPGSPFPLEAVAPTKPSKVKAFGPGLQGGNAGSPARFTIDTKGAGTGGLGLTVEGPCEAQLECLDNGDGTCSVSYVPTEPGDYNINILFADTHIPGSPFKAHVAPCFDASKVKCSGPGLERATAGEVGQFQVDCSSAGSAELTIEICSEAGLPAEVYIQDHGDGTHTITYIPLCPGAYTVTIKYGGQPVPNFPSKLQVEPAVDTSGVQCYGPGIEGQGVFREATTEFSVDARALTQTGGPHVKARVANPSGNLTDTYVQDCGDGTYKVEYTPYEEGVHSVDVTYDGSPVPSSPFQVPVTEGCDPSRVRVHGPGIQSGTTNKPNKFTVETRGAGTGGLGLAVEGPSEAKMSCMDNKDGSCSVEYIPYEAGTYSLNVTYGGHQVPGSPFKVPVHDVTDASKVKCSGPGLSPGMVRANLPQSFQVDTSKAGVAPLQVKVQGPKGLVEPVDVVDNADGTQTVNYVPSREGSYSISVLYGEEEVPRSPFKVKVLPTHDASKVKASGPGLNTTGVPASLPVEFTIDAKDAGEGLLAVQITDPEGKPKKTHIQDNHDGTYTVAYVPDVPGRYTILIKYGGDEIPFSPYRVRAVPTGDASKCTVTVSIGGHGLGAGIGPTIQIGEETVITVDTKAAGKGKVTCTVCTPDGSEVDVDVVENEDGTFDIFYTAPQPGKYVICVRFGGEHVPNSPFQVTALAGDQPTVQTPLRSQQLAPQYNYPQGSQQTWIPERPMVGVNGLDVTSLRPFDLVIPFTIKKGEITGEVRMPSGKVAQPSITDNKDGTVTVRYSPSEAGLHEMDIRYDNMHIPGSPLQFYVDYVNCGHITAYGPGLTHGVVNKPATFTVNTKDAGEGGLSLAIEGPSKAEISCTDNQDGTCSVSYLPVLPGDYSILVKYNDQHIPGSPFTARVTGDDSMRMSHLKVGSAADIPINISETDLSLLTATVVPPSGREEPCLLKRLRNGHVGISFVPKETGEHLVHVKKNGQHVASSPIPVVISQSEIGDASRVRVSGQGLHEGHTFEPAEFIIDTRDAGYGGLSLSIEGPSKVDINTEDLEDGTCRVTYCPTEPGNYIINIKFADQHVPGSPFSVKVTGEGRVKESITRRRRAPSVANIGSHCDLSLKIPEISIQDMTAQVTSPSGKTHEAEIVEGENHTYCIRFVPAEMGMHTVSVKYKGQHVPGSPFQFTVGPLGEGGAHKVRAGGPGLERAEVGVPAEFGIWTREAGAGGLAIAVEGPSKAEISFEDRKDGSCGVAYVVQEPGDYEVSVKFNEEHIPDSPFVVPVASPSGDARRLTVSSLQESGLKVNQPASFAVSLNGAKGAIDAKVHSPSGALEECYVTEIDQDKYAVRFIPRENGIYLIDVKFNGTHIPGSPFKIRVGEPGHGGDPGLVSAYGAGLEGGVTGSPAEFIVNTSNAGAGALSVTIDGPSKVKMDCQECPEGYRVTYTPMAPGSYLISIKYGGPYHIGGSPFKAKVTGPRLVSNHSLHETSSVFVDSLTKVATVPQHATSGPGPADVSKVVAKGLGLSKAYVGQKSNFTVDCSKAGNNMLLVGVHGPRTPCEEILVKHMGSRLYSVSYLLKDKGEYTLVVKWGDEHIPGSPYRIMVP

T1: GFP-tagged polycystin-2 (GFP-PC2) (UniProt Q13563)
T1 sequence: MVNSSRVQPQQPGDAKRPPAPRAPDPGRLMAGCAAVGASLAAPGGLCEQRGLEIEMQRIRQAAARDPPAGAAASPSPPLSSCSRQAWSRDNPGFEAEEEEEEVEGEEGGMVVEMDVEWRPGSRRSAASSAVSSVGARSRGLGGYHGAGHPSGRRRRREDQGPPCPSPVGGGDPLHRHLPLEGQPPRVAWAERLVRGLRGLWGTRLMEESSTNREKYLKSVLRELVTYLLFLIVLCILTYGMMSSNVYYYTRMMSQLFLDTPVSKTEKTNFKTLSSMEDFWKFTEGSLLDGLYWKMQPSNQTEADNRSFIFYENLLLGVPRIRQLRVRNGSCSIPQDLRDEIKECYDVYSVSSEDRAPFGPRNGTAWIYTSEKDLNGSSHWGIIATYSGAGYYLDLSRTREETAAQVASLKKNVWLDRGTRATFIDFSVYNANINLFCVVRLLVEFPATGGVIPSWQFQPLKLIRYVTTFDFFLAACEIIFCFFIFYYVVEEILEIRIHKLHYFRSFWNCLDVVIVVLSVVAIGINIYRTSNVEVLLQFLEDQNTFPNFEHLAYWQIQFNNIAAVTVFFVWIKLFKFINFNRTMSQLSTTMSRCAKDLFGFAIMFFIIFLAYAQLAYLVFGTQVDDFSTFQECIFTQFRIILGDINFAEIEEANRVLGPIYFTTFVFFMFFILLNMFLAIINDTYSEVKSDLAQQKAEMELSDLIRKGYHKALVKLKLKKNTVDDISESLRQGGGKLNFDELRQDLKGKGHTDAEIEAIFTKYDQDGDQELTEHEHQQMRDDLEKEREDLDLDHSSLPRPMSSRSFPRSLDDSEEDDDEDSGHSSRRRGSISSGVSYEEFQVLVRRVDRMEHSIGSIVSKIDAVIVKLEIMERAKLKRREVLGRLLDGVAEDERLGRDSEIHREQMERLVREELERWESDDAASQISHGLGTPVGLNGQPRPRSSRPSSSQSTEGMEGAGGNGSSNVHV

T2: Polycystin-2 (PC2), endogenous in HeLa cells (human (endogenous in HeLa)) (UniProt Q13563)
T2 sequence: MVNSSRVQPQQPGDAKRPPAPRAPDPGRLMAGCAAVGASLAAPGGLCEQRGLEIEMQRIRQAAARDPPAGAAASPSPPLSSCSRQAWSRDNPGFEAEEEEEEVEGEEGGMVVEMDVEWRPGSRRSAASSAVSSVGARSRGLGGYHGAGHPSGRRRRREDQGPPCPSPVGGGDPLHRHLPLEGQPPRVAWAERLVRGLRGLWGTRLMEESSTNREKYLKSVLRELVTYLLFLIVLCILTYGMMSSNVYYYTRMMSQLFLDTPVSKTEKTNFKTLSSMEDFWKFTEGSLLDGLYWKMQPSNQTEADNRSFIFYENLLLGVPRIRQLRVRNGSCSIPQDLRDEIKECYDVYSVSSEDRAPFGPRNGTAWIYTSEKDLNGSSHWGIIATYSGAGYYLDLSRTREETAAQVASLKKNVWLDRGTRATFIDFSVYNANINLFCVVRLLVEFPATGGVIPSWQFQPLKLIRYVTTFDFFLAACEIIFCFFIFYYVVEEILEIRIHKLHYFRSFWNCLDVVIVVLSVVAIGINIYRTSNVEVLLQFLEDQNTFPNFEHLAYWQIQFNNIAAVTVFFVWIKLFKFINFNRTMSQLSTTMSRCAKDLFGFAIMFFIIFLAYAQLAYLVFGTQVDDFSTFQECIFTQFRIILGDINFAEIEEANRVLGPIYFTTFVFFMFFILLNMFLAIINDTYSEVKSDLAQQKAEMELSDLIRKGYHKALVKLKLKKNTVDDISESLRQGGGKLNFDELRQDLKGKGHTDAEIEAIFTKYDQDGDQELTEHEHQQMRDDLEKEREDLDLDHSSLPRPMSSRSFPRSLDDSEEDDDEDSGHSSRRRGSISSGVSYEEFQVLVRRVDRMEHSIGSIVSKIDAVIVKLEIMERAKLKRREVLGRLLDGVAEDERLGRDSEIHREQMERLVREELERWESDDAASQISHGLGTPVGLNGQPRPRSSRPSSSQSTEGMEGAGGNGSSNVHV


Assays:
[1] = biological target: T1, GFP-tagged polycystin-2 (GFP-PC2); experiment: co-IP; A7 cells stably expressing GFP-PC2, with or without over-expressed FLNAC (Fig 4B); precipitating antibody of this panel not stated
[2] = biological target: T1, GFP-tagged polycystin-2 (GFP-PC2); experiment: co-IP; anti-GFP antibody and protein G sepharose on lysates of M2 and A7 cells stably expressing GFP-PC2; cells with transient FLNAC, or with control or FLNA knock-down; CelLytic-M lysis buffer, 4°C
[3] = biological target: T1, GFP-tagged polycystin-2 (GFP-PC2); experiment: cell surface biotinylation with avidin agarose pull-down; A7 cells (native or stably expressing GFP-PC2, with or without FLNAC over-expression); Sulfo-NHS-SS-Biotin at 4°C; biotinylated proteins captured on avidin agarose and immunoblotted
[4] = biological target: T2, Polycystin-2 (PC2), endogenous in HeLa cells (human (endogenous in HeLa)); experiment: co-IP; PC2 (H-280) antibody on HeLa lysate, endogenous proteins, with or without FLNA knock-down
[5] = biological target: Filamin-A (FLNA) of FLNA-replete A7 cells (human (in A7 human melanoma cells)) (UniProt P21333); experiment: far-Western, overlay or dot blot; as a3, but the membrane was co-incubated with purified GST-PC2C and purified His-FLNAC (competition); only the binder purified
[6] = biological target: Filamin-A (FLNA) of FLNA-replete A7 cells (human (in A7 human melanoma cells)) (UniProt P21333); experiment: co-IP; A7 cells stably expressing GFP-PC2, with or without over-expressed FLNAC (Fig 4B); precipitating antibody of this panel not stated
[7] = biological target: Filamin-A (FLNA) of FLNA-replete A7 cells (human (in A7 human melanoma cells)) (UniProt P21333); experiment: far-Western, overlay or dot blot; 50 μg lysate of A7 and M2 cells stably expressing PC2, separated by SDS-PAGE, transferred to nitrocellulose, denatured and renatured, then incubated with purified GST-PC2C alone; bound protein detected with PC2 (H-280) antibody; only the binder purified
[8] = biological target: Filamin-A (FLNA), endogenous in HeLa and HEK293 cells (human (endogenous in HeLa and HEK293)) (UniProt P21333); experiment: co-IP; HeLa (transient GFP-PC2), IMCD and HEK293 (stable GFP-PC2) lysates with nothing added, 1 mM Ca or 1 mM EGTA; in HeLa, IP with FLNA (E-3) and IB with GFP (EU4); IMCD and HEK293 with and without FLNA knock-down
[9] = biological target: Filamin-A (FLNA), endogenous in mouse IMCD cells (mouse (endogenous in IMCD)) (UniProt Q8BTM8); experiment: as above

Row | binding [2] | binding [3] | binding [5] | Molecule | further results
1 | binds | binds |  | Filamin-A (FLNA) of FLNA-replete A7 cells (from UniProt P21333 1-2647) | binding [1]: binds
2 |  |  |  | Filamin-A (FLNA), endogenous in HeLa and HEK293 cells (from UniProt P21333 1-2647) | binding [4]: binds
3 |  |  | binds | His-FLNAC (FLNA C-terminus, aa 2150-2647), purified from E. coli (from UniProt P21333 2150-2647) (domain or fragment) | 
4 | binds | binds |  | FLNA C-terminus (FLNAC, aa 2150-2647), expressed in cells (from UniProt P21333 2150-2647) (domain or fragment) | binding [6]: binds
5 |  |  | binds | GST-PC2C (C-terminus of PC2, aa 682-968) (domain or fragment, UniProt Q13563 682-968) DTYSEVKSDLAQQKAEMELSDLIRKGYHKALVKLKLKKNTVDDISESLRQGGGKLNFDELRQDLKGKGHTDAEIEAIFTKYDQDGDQELTEHEHQQMRDDLEKEREDLDLDHSSLPRPMSSRSFPRSLDDSEEDDDEDSGHSSRRRGSISSGVSYEEFQVLVRRVDRMEHSIGSIVSKIDAVIVKLEIMERAKLKRREVLGRLLDGVAEDERLGRDSEIHREQMERLVREELERWESDDAASQISHGLGTPVGLNGQPRPRSSRPSSSQSTEGMEGAGGNGSSNVHV | binding [7]: binds
6 |  |  |  | GFP-tagged polycystin-2 (GFP-PC2) (protein, UniProt Q13563 1-968) MVNSSRVQPQQPGDAKRPPAPRAPDPGRLMAGCAAVGASLAAPGGLCEQRGLEIEMQRIRQAAARDPPAGAAASPSPPLSSCSRQAWSRDNPGFEAEEEEEEVEGEEGGMVVEMDVEWRPGSRRSAASSAVSSVGARSRGLGGYHGAGHPSGRRRRREDQGPPCPSPVGGGDPLHRHLPLEGQPPRVAWAERLVRGLRGLWGTRLMEESSTNREKYLKSVLRELVTYLLFLIVLCILTYGMMSSNVYYYTRMMSQLFLDTPVSKTEKTNFKTLSSMEDFWKFTEGSLLDGLYWKMQPSNQTEADNRSFIFYENLLLGVPRIRQLRVRNGSCSIPQDLRDEIKECYDVYSVSSEDRAPFGPRNGTAWIYTSEKDLNGSSHWGIIATYSGAGYYLDLSRTREETAAQVASLKKNVWLDRGTRATFIDFSVYNANINLFCVVRLLVEFPATGGVIPSWQFQPLKLIRYVTTFDFFLAACEIIFCFFIFYYVVEEILEIRIHKLHYFRSFWNCLDVVIVVLSVVAIGINIYRTSNVEVLLQFLEDQNTFPNFEHLAYWQIQFNNIAAVTVFFVWIKLFKFINFNRTMSQLSTTMSRCAKDLFGFAIMFFIIFLAYAQLAYLVFGTQVDDFSTFQECIFTQFRIILGDINFAEIEEANRVLGPIYFTTFVFFMFFILLNMFLAIINDTYSEVKSDLAQQKAEMELSDLIRKGYHKALVKLKLKKNTVDDISESLRQGGGKLNFDELRQDLKGKGHTDAEIEAIFTKYDQDGDQELTEHEHQQMRDDLEKEREDLDLDHSSLPRPMSSRSFPRSLDDSEEDDDEDSGHSSRRRGSISSGVSYEEFQVLVRRVDRMEHSIGSIVSKIDAVIVKLEIMERAKLKRREVLGRLLDGVAEDERLGRDSEIHREQMERLVREELERWESDDAASQISHGLGTPVGLNGQPRPRSSRPSSSQSTEGMEGAGGNGSSNVHV | binding [8]: binds; binding [9]: binds
